{"source": "the supplement of paper PMC11237882", "note": "This is one part of the list. Values are worked out from sequencing counts and are noisy."}
{"target": "T1, Homer1 EVH1 domain", "T1 chain": "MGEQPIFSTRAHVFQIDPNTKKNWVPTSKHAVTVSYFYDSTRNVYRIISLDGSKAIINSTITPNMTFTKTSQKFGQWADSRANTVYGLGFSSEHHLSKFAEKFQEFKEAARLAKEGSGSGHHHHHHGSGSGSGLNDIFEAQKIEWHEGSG", "experiment": "enrichment score (AUC of log2 frequency ratio across FACS sorting rounds) (log2 AUC); higher = stronger enrichment for Homer1 EVH1 binding"}
{"binder": "MCCTKSLLLAALMSVLLLHLCGESEAASNFDCCLGY", "enrichment score": -0.823}
{"binder": "LWLINFVLALGQCALAGAFATYYWAMKKPDDISRYP", "enrichment score": 2.92}
{"binder": "RPLFLALAVLVTTVLWAVILSILLSKASTERAALLD", "enrichment score": 1.74}
{"binder": "MERVNETVVREVIFLGFSSLARLQQLLFVIFLLLYL", "enrichment score": 1.02}
{"binder": "TLHTDGGDVGRAVVARLGLGLLLLALLLPTQIYSNQ", "enrichment score": 2.25}
{"binder": "MEGAELAGKILSTWLTLVLGFILLPSVFGVSLGISE", "enrichment score": 3.83}
{"binder": "IIGHGLSIASLLISLGIFFYFKSLSCQRITLHKNLF", "enrichment score": -0.966}
{"binder": "CISVWNVFLLANFTLVLSIFILPLMHTYAGLAVICA", "enrichment score": 1.35}
{"binder": "MGLNKSASTFQLTGFPGMEKAHHWIFIPLLAAYISI", "enrichment score": 0.664}
{"binder": "TISQFTLSEETNADVYYYRIIIPVLLMLGISCFIFS", "enrichment score": 4}
{"binder": "PAFIASASSSNWEFIGCLISTWHSALCLLKPLILRR", "enrichment score": -0.92}
{"binder": "TLVLAIPLLLILVSYVHILSAILQFPSTLGRCKAFS", "enrichment score": 2.54}
{"binder": "MAQRMTTQLLLLLVWVAVVGEAQTRIAWARTELLNV", "enrichment score": 1.47}
{"binder": "ITDYMASELGLLKVLETFVACLIFVFINSPYVYHNR", "enrichment score": 2.28}
{"binder": "LQEATISVAGCLLQFFIFGSLATAECLLLAVMAYDR", "enrichment score": 0.302}
{"binder": "GALFNGLTLLILALISLFSVPVIYERHQAQIDHYLG", "enrichment score": 1.32}
{"binder": "SPEGGDPSIFSSLPLGFFIVSSMVMLIGARYISGVP", "enrichment score": 2.73}
{"binder": "MTLIEGVGDEVTVLFSVLACLLVLALAWVSTHTAEG", "enrichment score": -1.12}
{"binder": "PATEMSPTGLLVVFAPVVLGLKAITLAALLLALATS", "enrichment score": 3.39}
{"binder": "GSSTAARIFGVISIIFVVVSIINMALMSAELSWLDL", "enrichment score": -2.13}
{"binder": "SFDWSMDAVPLLKTVCDWRNLHTVAFYTGLLLLAYY", "enrichment score": 3.92}
{"binder": "DTIIREGTLMGTAIGTCFGYWLGVSSFIYFLAYLCN", "enrichment score": 2.51}
{"binder": "MSAREVAVLLLWLSCYGSALWRYSTNSPNYRIFSTR", "enrichment score": 0.159}
{"binder": "FLENFSILETHLTWLCICSGFVTAVNLVLYLVVKPN", "enrichment score": 1.56}
{"binder": "FDKALLAISNVLFVAGLAFVIGLERTFRFFFQKHKM", "enrichment score": 3.26}
{"binder": "RRLFPFQLTGISKLISRRMPPFHAGLYTFAFLANLC", "enrichment score": 0.699}
{"binder": "DPEVRVLHSIGHSAAPRLFPLAWTVLLLPLLLLQTP", "enrichment score": -0.716}
{"binder": "FYVNVMFMLAILLTFFHPFLVYRECRTWKESPSAIA", "enrichment score": -0.758}
{"binder": "MFVYIVFLFGFSTAVVTLIEDGKNDSLPSESTSHRW", "enrichment score": 1.59}
{"binder": "MALTFYLLVALVVLSYKSFSSLGCDLPQTHSLGSRL", "enrichment score": 2.21}
{"binder": "MSALGAVIALLIWGQLFAVDSGNDVTDIADDGCPKP", "enrichment score": 2.12}
{"binder": "WSVGEALILLVVSIGQVFLLKSFFSDKRTTTTRVGS", "enrichment score": 2.15}
{"binder": "EFGRGNPFMLFLCLAILLEHRDHIMRNGLDYNELAK", "enrichment score": 1.91}
{"binder": "LLAILITTLVYVGIAVSVGSCVVRDATGNVNDTIVT", "enrichment score": 1.23}
{"binder": "AAAQLITMLWSLSVSSFAVGGMTASFFGGWLGDTLG", "enrichment score": 0.395}
{"binder": "IQKASVLFFLAWVCFLFYAGIALFTSGFLLTRLELT", "enrichment score": 3.55}
{"binder": "VLSAINVGKSIMFAMTPLLIATSSLMPFIGFLLGYV", "enrichment score": -2.73}
{"binder": "RRDSEPNGNLEMHDGDATGEKIYKCDECGKTFTWIR", "enrichment score": -0.338}
{"binder": "MAKMNLSSYILILTFSLFSQGILLSASKSIRNLDDD", "enrichment score": 1.67}
{"binder": "HGFHPEENAREYGGAPSLQAQTVLLLLPLLLMLFSR", "enrichment score": 2.11}
{"binder": "MSPLLGLRSELQDTCTSLGLMLSVVLLMGLARVVAR", "enrichment score": 2}
{"binder": "RDMNQTLGDNITVKMYSPSWPSFDYTMVVIFVIAVF", "enrichment score": 1.17}
{"binder": "KALKASLTLGILLGMFFVTWLPFFVANIVQAVCDCI", "enrichment score": 1.94}
{"binder": "GSTLNENKTPWFEMEGNLAPEDFKKFKKPLLPQLRR", "enrichment score": 1.77}
